Test results reported in US9504663B2, “Composition for the treatment of cystic fibrosis” (SciPharm SaRL, priority 2011, dated 2016).
At least one compound was matched to its structure with a doubt left.

Columns and labels:
[1] = system: IB3-1 cells; assay: Forskolin-triggered [3H]cAMP accumulation in IB3-1 cells with PDE inhibitors; type: cell-based, human; conditions: 5 μM forskolin
Protocol: IB3-1 cells were seeded onto PDL-coated wells of 6-well plates (2 to 2.5*10^5 cells/well) in complete growth medium (LHC-8+5% FCS). On the following day, the cellular adenine nucleotide pool was metabolically labelled by incubation with [^3H]adenine (1 μCi/well) in Dulbecco's Modified Eagle Medium (DMEM) in the presence of adenosine deaminase (5 μg/ml) for 4 h. Subsequently, the medium was replaced with fresh DMEM and the formation of cAMP was stimulated by addition of 5 μM forskolin, a direct activator of the adenylyl cyclase, or 10 μM treprostinil in the absence and presence of different concentrations of the following phosphodiesterase (PDE) inhibitors: ibudilast (0.3-1000 μM), Ro-20-1724 (0.03-300 μM), roflumilast (1 nM-10 μM), dipyridamole (0.01-100 μM), aminone (1, 10, 100 μM), anagrelide (1, 10, 100 μM), enoximone (1, 10, 100 μM), milrinone (1, 10, 100 μM) and cilostazol (0.1 to 100 μM) for 20 min at 37° C. In some instances, the effect of these inhibitors on basal cAMP accumulation was examined by incubating cells in the absence of any additional stimulus with increasing concentrations of PDE-inhibitors (i.e., dipyridamole, ibudilast and Ro-20-1724 at 1, 10 and 100 μM; roflumilast at and 0.1, 1 and 10 μM of Roflumilast). […] The formation of [^3H]cAMP was quantified by liquid scintillation counting.

[2] = system: cystic fibrosis transmembrane conductance regulator/Cl- channel (CFTR); assay: Whole cell patch clamp of treprostinil-induced Cl- currents through CFTR, Example 3; type: cell-based, human; conditions: added on top of treprostinil
Protocol: The following human bronchial epithelial cell lines were obtained through ATCC: BEAS-2B (ATCC CRL-9609), NuLi-1 (ATCC CRL-4011), IB3-1 (ATCC CRL-2777), CuFi-1 (ATCC CRL-4013). Cells were propagated using the culture conditions outlined in the ATCC recommendations, e.g., I3B-1 cells were maintained on dishes coated with fibronectin (10 μg/m) rat collagen I (30 μg/ml) and BSA 10 μg/mL) in LHC-8 medium (Gibco) containing 5% fetal calf serum (FCS) at 37° C. in a 5% CO2 humified atmosphere. BEAS-2B cells were maintained at 37° C. in a 5% CO2 humified atmosphere on dishes precoated with collagen IV (60 μg/ml in 0.25% acetic acid) in BEGM medium (Lonza); the GA-1000 (gentamycin-amphotericin B mix) provided with the BEGM kit was not added to the medium. The level of endogenous expression of CFTR was too low to obtain a reliable signal. Accordingly, BEAS-2B cells were transiently transfected with a plasmid driving the expression of human GFP-tagged wild type CFTR by using Lipofectamine Plus® (Invitrogen) according to the instructions of the manufacturer. Cells expressing this GFP-tagged CFTR were identified by fluorescence microscopy and subjected to patch clamp recordings as outlined below. The whole cell patch clamp technique was used for current recordings performed at 22±1.5° C. using an Axoclamp 200B patch clamp amplifier (Axon Instruments). […]

Structure (SMILES): CC(C)C(=O)c1c(C(C)C)nn2ccccc12 [Ibudilast]
- enhancement of the cAMP accumulation triggered by forskolin [1]: substantially enhanced
- relative efficacy, forskolin-triggered cAMP accumulation ([1]; compared with roflumilast): more effective than roflumilast
- effect on treprostinil-induced CFTR current of adding PDE4 inhibitor [2]: additional increase of the current
